Measurements reported in the supplement of paper PMC12889115.
This is one part of the list. Values are raw readings; no control value is given beside them.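 First-pass screen: polymyxin B was added at a level that permeabilizes the Salmonella outer membrane while sparing the inner membrane. DMSO wells, with and without polymyxin B, defined maximum growth. Because plates differed from one another, each plate's data were ranked separately and the compounds with the lowest OD600 were carried forward as hits.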

Test system: Salmonella enterica serovar Typhimurium SL1344
Assay: bacterial growth OD600 after 18 h with compound and polymyxin B; higher = more bacterial growth (less inhibition)
Details: 50 µM, Mueller-Hinton broth

| Compound | bacterial growth OD600 (polymyxin B 1 µg/mL) | bacterial growth OD600 (polymyxin B 0.75 µg/mL) |
| --- | --- | --- |
| CC(C)c1cc(CN2CCN(CC3CCCCC3)C(CCO)C2)n[nH]1 (stereo unspecified) | 0.954 | – |
| CC(C)C(=O)NC1CC(=O)N(CCc2ccc(F)cc2)C1 (stereo unspecified) | 1.04 | – |
| COc1ccc(Cl)cc1NC(=O)CCC1CCCN(C(=O)C2=C(C)OCCO2)C1 (stereo unspecified) | 0.837 | – |
| CCNC(=O)c1cc(CN(C)Cc2ccccc2)on1 | 1.23 | – |
| Cc1ccn(CC(=O)NCCN2Cc3ccccc3OC(c3ccccc3F)C2)n1 (stereo unspecified) | – | 0.912 |
| O=C1NCCN(c2nc3nonc3nc2N2CCCCC2)C1Cc1ccccc1 (stereo unspecified) | – | 0.772 |
| COc1ncccc1C(=O)N(C)CC1CCCN(CCc2ccccc2C)C1 (stereo unspecified) | 0.79 | – |
| COc1ccc(CN(C)CC2CCCN(CCc3ccc(F)cc3)C2)cc1OC (stereo unspecified) | 0.829 | – |
| Cc1cccc(NC(=O)CCC2CCN(C(=O)CSc3nncn3C)CC2)c1 | 0.921 | – |
| CC1(C)Cc2nc(N3CCC(O)CC3)ncc2C(NC2CCCCC2)C1 (stereo unspecified) | – | 0.93 |
| OC(Cc1ccccc1)c1ccc2c(c1)CN(Cc1ccccn1)CCO2 (stereo unspecified) | – | 0.792 |
| Cc1ccn(CCC(=O)N2CCC3(CC2)CC3C(=O)NCCC(c2ccccc2)c2ccccc2)n1 (stereo unspecified) | – | 0.007 |
| COC(=O)c1cc(CNC(=O)c2ccccn2)cc(NS(=O)(=O)c2cccc(C(F)(F)F)c2)c1 | – | 0.62 |
| O=C(C1CC1)N1CCCC(CCc2c(F)cccc2F)C1 (stereo unspecified) | – | 0.33 |
| CCOC(=O)C1(CC2CCCCO2)CCN(S(=O)(=O)c2ccc(F)cc2Cl)CC1 (stereo unspecified) | – | 0.609 |
| CC(NC1CCN(c2ccc(C(=O)N(C)C)cc2)CC1)c1cccs1 (stereo unspecified) | – | 0.829 |

| Compound | bacterial growth OD600 (polymyxin B 1 µg/mL) | bacterial growth OD600 (polymyxin B 0.75 µg/mL) |
| --- | --- | --- |
| Cc1ccccc1N1CCN(c2ncccc2CNC(=O)c2ccoc2C)CC1 | 0.102 | – |
| O=C(Cn1cccn1)N(CC1CCN(Cc2ccccc2F)CC1)CC1CCCO1 (stereo unspecified) | – | 0.795 |
| COc1ccccc1CCN1CCC(CN(C)C(=O)Cc2ccccc2C)CC1 | 0.983 | – |
| O=C(CCC1CCCN(C(=O)c2ccc(Cl)s2)C1)NC1CC1 (stereo unspecified) | 0.999 | – |
| Cc1nc(CN2CCN(C(=O)Cn3nnnc3CN(C)C(C)C)CC2)cs1 | – | 0.785 |
| Cn1ccnc1SCCNC(=O)c1ccc2nc(C3CC3)oc2c1 | 1.12 | – |
| Cc1ccc(-c2cc3c(c(OCC4CCCN(C)C4)c2)OCCN(C(=O)Cc2c(C)noc2C)C3)s1 (stereo unspecified) | – | 0.94 |
| CC1(C)CC(CC(=O)NC2CCCN(CC3CCCCC3)C2)CC(C)(C)N1 (stereo unspecified) | 0.985 | – |
| COc1ccc(CCN(C)C(=O)CC2(c3ccccc3OC)CC(=O)N(C)C2=O)cc1OC (stereo unspecified) | – | 0.86 |
| COC(=O)C1CCN(CC2(O)CCCN(CC3CCC3)C2=O)CC1 (stereo unspecified) | 0.926 | – |
| COc1ccc(C(=O)N2CCCC(Nc3ccccc3)C2)cc1C (stereo unspecified) | 0.754 | – |
| CCOC(=O)C1CCN(C(=O)c2coc(COc3ccccc3)n2)CC1 | 0.91 | – |
| O=C1N(CCCc2ccccc2)CCCC12CCN(c1ccccn1)C2 (stereo unspecified) | 0.03 | – |
| O=C(NCc1cn2ccsc2n1)c1ccc2oc(Cc3ccccc3)nc2c1 | – | 0.94 |
| CC(C)CN1CCC(C2CCN(C(=O)c3ccncc3)C2)CC1 (stereo unspecified) | 1 | – |

Two entries picked at random from the list so far, as already listed:

| Compound | bacterial growth OD600 (polymyxin B 1 µg/mL) | bacterial growth OD600 (polymyxin B 0.75 µg/mL) |
| --- | --- | --- |
| COc1ccccc1CCN1CCC(CN(C)C(=O)Cc2ccccc2C)CC1 | 0.983 | – |
| CC(C)C(=O)NC1CC(=O)N(CCc2ccc(F)cc2)C1 (stereo unspecified) | 1.04 | – |
